Assay results taken from patent US5492802A, “Dye compounds and photographic elements containing such dyes” (Eastman Kodak Company, priority 1994, dated 1996).
“And” between values parts separate entries of the source, which are not always exact repeats. Equal values may be shown once.

Assays:
[1] = Dye speed in the B&W format (spectral sensitization); conditions: Table VI, 0.8 mmole/mole Ag, various coating sets; for SR (sensitizing ratio): speed at λ-max minus intrinsic speed at 400 nm plus 200 (log E × 100)
[2] = Dye stain in the color format; conditions: Table VIII, set not marked #; for Stain (maximum absorbance): at the stain λmax on the same line, 0.4 mmole/mole Ag; for Stain λmax: wavelength of the stain on the same line
[3] = Dye stain in the B&W format; conditions: Table VII, various coating sets; for Stain (maximum absorbance): at the λmax on the same line, RP X-OMAT processing, 0.8 mmole/mole Ag; for Stain λmax: wavelength of the stain absorbance on the same line
[4] = Dye speed in the color format (spectral sensitization); conditions: Table VIII, 0.4 mmole/mole Ag, set not marked #; for SR (sensitizing ratio) / Speed: Kodak C-41 processing

| Compound | λmax (sensitization) (nm) [1] | SR (sensitizing ratio) [1] | Stain (maximum absorbance) [2] | Stain λmax [2] | Stain (maximum absorbance) [3] | Stain λmax [3] | SR (sensitizing ratio) [4] | Speed [4] | Sensitization λmax [4] |
| --- | --- | --- | --- | --- | --- | --- | --- | --- | --- |
| CCC(=Cc1oc2ccc(-c3ccccc3)cc2[n+]1CCCS(=O)(=O)O)C=C1Oc2ccc(F)cc2N1CCCS(=O)(=O)[O-] [Dye C-2, reference compound] | 538 | 235 | 19 OD × 10^3 | 508 | 48 OD × 10^3 | 504 | 223 | 188 | 540 |
| CCC(=Cc1oc2ccc(-c3cccc(NC(C)=O)c3)cc2[n+]1CCS(=O)(=O)[O-])C=C1Oc2ccc(-c3cccc(NC(C)=O)c3)cc2N1CCS(=O)(=O)O [Dye I-15] | 543 | 247 | 9 OD × 10^3 | 510 | 30 OD × 10^3 and 36 OD × 10^3 | 485 and 510 | 211 | 157 | 540 |
| CCC(=Cc1oc2ccc(-c3ccccc3)cc2[n+]1CC)C=C1Oc2ccc(NC(C)=O)cc2N1CCCS(=O)(=O)[O-] [Dye C-6, reference compound] | 548 | 247 | 53 OD × 10^3 | 512 | – | – | 223 | – | 550 |
| CCC(=Cc1oc2ccc(NC(=O)c3ccccc3)cc2[n+]1CCCS(=O)(=O)[O-])C=C1Oc2ccc(F)cc2N1CCCS(=O)(=O)O [Dye I-3] | 537 | 238 | 5 OD × 10^3 | 510 | 36 OD × 10^3 | 510 | 218 | 192 | 540 |
| CCC(=Cc1oc2ccc(NC(=O)c3ccco3)cc2[n+]1CCCCS(=O)(=O)O)C=C1Oc2ccc(F)cc2N1CCCS(=O)(=O)[O-] [Dye I-26] | – | – | 2 OD × 10^3 | 510 | 38 OD × 10^3 | 508 | – | 185 | 540 |
